From PubChem BioAssay AID188 (DTP/NCI, 2004)
Values are animals surviving of animals treated; these mice carried no tumour. Counts of survivors are from the toxicity check (mostly the fifth day) where no day follows; animals may have died later. Schedules are NCI's codes, taken here to give the interval after Q, in days (D) or hours (H), and the number of doses after X.

Test system: CD2F1 mice, nontumored, toxicity/survival
Assay: NCI In Vivo Anticancer Drug Screen. Data for tumor model Nontumored Animals (Toxicity Test) in CD2F1 (CDF1) mice

Cc1cc2c(c3oc(C4(C)OC4C4OC4C)cc(=O)c13)C(=O)c1c(O)c(C3CC(C)(N(C)C)C(O)C(C)O3)cc(C3CC(N(C)C)C(O)C(C)O3)c1C2=O (stereo not drawn)
survivor count (dose: 0.01 mg/kg/injection, schedule: Q01DX009 (oral), vehicle: saline): 8 of 8
survivor count (dose: 0.03 mg/kg/injection, schedule: Q01DX009 (oral), vehicle: saline): 8 of 8
survivor count (dose: 0.06 mg/kg/injection, schedule: Q01DX001 (ip), vehicle: saline): 8 of 8
survivor count (dose: 0.06 mg/kg/injection, schedule: Q01DX001 (oral), vehicle: saline): 8 of 8
survivor count (dose: 0.06 mg/kg/injection, schedule: Q01DX009 (oral), vehicle: saline): 8 of 8
survivor count (dose: 0.07 mg/kg/injection, schedule: Q01DX009 (oral), vehicle: saline): 8 of 8
survivor count (dose: 0.12 mg/kg/injection, schedule: Q01DX001 (ip), vehicle: saline): 8 of 8
survivor count (dose: 0.12 mg/kg/injection, schedule: Q01DX001 (oral), vehicle: saline): 8 of 8
survivor count (dose: 0.12 mg/kg/injection, schedule: Q01DX009 (oral), vehicle: saline): 8 of 8
survivor count (dose: 0.13 mg/kg/injection, schedule: Q01DX009 (oral), vehicle: saline): 8 of 8
survivor count (dose: 0.24 mg/kg/injection, schedule: Q01DX001 (ip), vehicle: saline): 8 of 8
survivor count (dose: 0.24 mg/kg/injection, schedule: Q01DX001 (oral), vehicle: saline): 8 of 8
survivor count (dose: 0.25 mg/kg/injection, schedule: Q01DX001 (oral), vehicle: saline): 8 of 8
survivor count (dose: 0.25 mg/kg/injection, schedule: Q01DX009 (oral), vehicle: saline): 8 of 8
survivor count (dose: 0.48 mg/kg/injection, schedule: Q01DX001 (ip), vehicle: saline): 4 of 8
survivor count (dose: 0.48 mg/kg/injection, schedule: Q01DX001 (oral), vehicle: saline): 8 of 8
survivor count (dose: 0.5 mg/kg/injection, schedule: Q01DX001 (oral), vehicle: saline): 8 of 8
survivor count (dose: 0.5 mg/kg/injection, schedule: Q01DX009 (oral), vehicle: saline): 8 of 8
survivor count (dose: 1.0 mg/kg/injection, schedule: Q01DX001 (oral), vehicle: saline): 8 of 8
survivor count (dose: 2.0 mg/kg/injection, schedule: Q01DX001 (oral), vehicle: saline): 8 of 8
survivor count (dose: 1.0 micrograms/kg/injection, schedule: Q03HX024 (ip), vehicle: saline): 8 of 8
survivor count (dose: 2.0 micrograms/kg/injection, schedule: Q03HX016 (ip), vehicle: saline): 8 of 8
survivor count (dose: 2.0 micrograms/kg/injection, schedule: Q03HX024 (ip), vehicle: saline): 8 of 8
survivor count (dose: 4.0 micrograms/kg/injection, schedule: Q01DX009 (ip), vehicle: saline): 8 of 8
survivor count (dose: 4.0 micrograms/kg/injection, schedule: Q03HX016 (ip), vehicle: saline): 8 of 8
survivor count (dose: 4.0 micrograms/kg/injection, schedule: Q03HX024 (ip), vehicle: saline): 8 of 8
survivor count (dose: 8.0 micrograms/kg/injection, schedule: Q01DX009 (ip), vehicle: saline): 8 of 8
survivor count (dose: 8.0 micrograms/kg/injection, schedule: Q03HX008 (ip), vehicle: saline): 8 of 8
survivor count (dose: 8.0 micrograms/kg/injection, schedule: Q03HX016 (ip), vehicle: saline): 8 of 8
survivor count (dose: 8.0 micrograms/kg/injection, schedule: Q03HX024 (ip), vehicle: saline): 8 of 8
survivor count (dose: 8.0 micrograms/kg/injection, schedule: Q04DX003 (ip), vehicle: saline): 8 of 8
survivor count (dose: 15.0 micrograms/kg/injection, schedule: Q01DX009 (ip), vehicle: saline): 8 of 8
survivor count (dose: 15.0 micrograms/kg/injection, schedule: Q03HX008 (ip), vehicle: saline): 8 of 8
survivor count (dose: 15.0 micrograms/kg/injection, schedule: Q03HX016 (ip), vehicle: saline): 8 of 8
survivor count (dose: 15.0 micrograms/kg/injection, schedule: Q04DX003 (ip), vehicle: saline): 8 of 8
survivor count (dose: 15.0 micrograms/kg/injection, schedule: Q08DX002 (ip), vehicle: saline): 8 of 8
survivor count (dose: 30.0 micrograms/kg/injection, schedule: Q01DX009 (ip), vehicle: saline): 8 of 8
survivor count (dose: 30.0 micrograms/kg/injection, schedule: Q03HX008 (ip), vehicle: saline): 8 of 8
survivor count (dose: 30.0 micrograms/kg/injection, schedule: Q04DX003 (ip), vehicle: saline): 8 of 8
survivor count (dose: 30.0 micrograms/kg/injection, schedule: Q08DX002 (ip), vehicle: saline): 7 of 7
survivor count (dose: 60.0 micrograms/kg/injection, schedule: Q03HX008 (ip), vehicle: saline): 8 of 8
survivor count (dose: 60.0 micrograms/kg/injection, schedule: Q04DX003 (ip), vehicle: saline): 8 of 8
survivor count (dose: 60.0 micrograms/kg/injection, schedule: Q08DX002 (ip), vehicle: saline): 8 of 8
survivor count (dose: 120.0 micrograms/kg/injection, schedule: Q08DX002 (ip), vehicle: saline): 8 of 8

O=[N+]([O-])c1ccc(-c2cnc(Br)c3ccccc23)cc1
survivor count (dose: 1.0 mg/kg/injection, schedule: Q01DX001 (ip), vehicle: DMSO): 2 of 2
survivor count (dose: 10.0 mg/kg/injection, schedule: Q01DX001 (ip), vehicle: DMSO): 2 of 2
survivor count (dose: 100.0 mg/kg/injection, schedule: Q01DX001 (ip), vehicle: DMSO): 2 of 2

CC12CCC(O)CC1CCC1C2CCC2(C)C(c3ccc(=O)oc3)CC3OC312 (stereo not drawn)
survivor count (dose: 1.0 mg/kg/injection, schedule: Q01DX001 (ip), vehicle: saline): 2 of 2
survivor count (dose: 10.0 mg/kg/injection, schedule: Q01DX001 (ip), vehicle: saline): 0 of 2
survivor count (dose: 100.0 mg/kg/injection, schedule: Q01DX001 (ip), vehicle: saline): 0 of 2

CCN(C)N=Nc1ccc(C(N)=O)cc1
survivor count (dose: 79.0 mg/kg/injection, schedule: Q01DX009 (ip), vehicle: Klucel (hydroxypropylcellulose) (HPC)): 10 of 10
survivor count (dose: 118.0 mg/kg/injection, schedule: Q01DX009 (ip), vehicle: Klucel (hydroxypropylcellulose) (HPC)): 10 of 10
survivor count (dose: 177.0 mg/kg/injection, schedule: Q01DX009 (ip), vehicle: Klucel (hydroxypropylcellulose) (HPC)): 8 of 10
survivor count (dose: 266.0 mg/kg/injection, schedule: Q01DX009 (ip), vehicle: Klucel (hydroxypropylcellulose) (HPC)): 8 of 10
survivor count (dose: 400.0 mg/kg/injection, schedule: Q01DX009 (ip), vehicle: Klucel (hydroxypropylcellulose) (HPC)): 0 of 10

Nc1nc(N)c2cc(CCc3ccc(C(=O)NC(CCC(=O)O)C(=O)O)cc3)ccc2n1 (stereo not drawn)
survivor count (dose: 1.0 mg/kg/injection, schedule: Q01DX001 (ip), vehicle: Klucel (hydroxypropylcellulose) (HPC)): 2 of 2
survivor count (dose: 10.0 mg/kg/injection, schedule: Q01DX001 (ip), vehicle: Klucel (hydroxypropylcellulose) (HPC)): 2 of 2
survivor count (dose: 100.0 mg/kg/injection, schedule: Q01DX001 (ip), vehicle: Klucel (hydroxypropylcellulose) (HPC)): 0 of 2
